Experimental data published in patent US20160076075A1 (priority 2014, published 2016).
“And” between values parts separate entries of the source, which are not always exact repeats. Equal entries are not always repeated.

Test system: IMCSzyme™ (recombinant glucuronidase)
Assay: IMCSzyme hydrolysis of THCA glucuronide with and without water miscible organic media
Type: biochemical
Conditions: for Actual Conc. / % Dev.: replicates 01-05; for Actual Conc.: expected 18.5 ng/mL; for % Dev.: versus expected 18.5 ng/mL
Procedure: To a 10 mL volumetric flask add 5 mL of 0.2M Sodium Phosphate buffer pH 7.5. Then add 1.0 mL of IMCS enzyme. QS to the line with 0.2M phosphate buffer, cap and invert several times to mix well. Final enzyme concentration is 5000 U.
To a 10 mL volumetric flask add 6 mL of 50/50 ACN/MeOH. Add […] of THCA D9 100 μg/mL. Then add 1.0 mL of IMCS enzyme stock (>5000 U). QS to the line with 0.2M sodium phosphate buffer. Final enzyme concentration is 5000 U.
In a 10 mL volumetric flask add 6 mL of 50/50 ACN/MeOH. Add 25 μL of THCA D9 (100 μg/mL). QS to the line with DI water, cap and invert several times to mix well. Concentration of IS will be 250 ng/mL.
To a 10 mL volumetric flask add 1 mL ACN. Add 18.5 μL of 10 μg/mL THCA Glucuronide working solution adjusted to allow quantitation of THCA at 18.5 ng/mL post hydrolysis. QS to line with NHU.
Pipet 50 μL sample into a 750 μL autosampler vial. Pipet 50 μL of prepared enzyme into vial (this will yield 500 U in final 500 μL volume) and wait 5, 10, 15, and 20 minutes. Then pipet 400 μL of THCA D9 IS into the vial. Vortex and move to instrument.
Pipet 50 μL sample into a 750 μL, autosampler vial. Then pipet 450 μL, of Enzyme Stock Solution With Organic (see above) into vial. Wait 5, 10, 15, and 20 minutes. Vortex and move to instrument.

## CCCCCc1cc(O)c2c(c1)OC(C)(C)C1CCC(C(=O)OC3OC(C(=O)O)C(O)C(O)C3O)=CC21 (stereo not drawn) [THCA Glucuronide]
55° C., 5 min
  Average % Accuracy: 89.20%
  % Dev.: 7.96% and 14.35% and 13.15% and 7.04% and 11.48%
55° C., 5 min, enzyme incubated, then organic media added
  Actual Conc.: 20.1 ng/mL and 21.6 ng/mL and 21.3 ng/mL and 19.9 ng/mL and 20.9 ng/mL
65° C., 5 min
  Average % Accuracy: 90.07%
  % Dev.: 6.09% (2×) and 18.14% and 12.74% and 6.57%
65° C., 5 min, enzyme incubated, then organic media added
  Actual Conc.: 19.7 ng/mL (2×) and 22.6 ng/mL and 21.2 ng/mL and 19.8 ng/mL
Room Temp, 5 minutes
  Average % Accuracy: 110.20%
  % Dev.: −8.19% and −27.59% and −3.93% and −1.09% and −10.12%
Room Temp, 5 minutes, enzyme and organic media added at same time
  Actual Conc.: 17.1 ng/mL and 14.5 ng/mL and 17.8 ng/mL and 18.3 ng/mL and 16.8 ng/mL
Room Temp., 10 minutes
  Average % Accuracy: 101.70%
  % Dev.: −6.32% and 15.53% and −10.12% and 0.00% and −7.56%
Room Temp., 10 minutes, enzyme and organic media added at same time
  Actual Conc.: 17.4 ng/mL and 21.9 ng/mL and 16.8 ng/mL and 18.5 ng/mL and 17.2 ng/mL
